Experimental data from patent US20200087345A1.
Results are given in words; binding and its absence hold for the method and conditions named. Binding seen in cells or lysates may run through a third protein. Some results given as binding are weak or reduced against the parent protein; the word gives no strength.

By UniProt entry, the sequences of proteins in these tests, tags left out. Where a name states a change or a piece, a line headed by the entry shows the natural chain unless it says otherwise.
UniProt P06730: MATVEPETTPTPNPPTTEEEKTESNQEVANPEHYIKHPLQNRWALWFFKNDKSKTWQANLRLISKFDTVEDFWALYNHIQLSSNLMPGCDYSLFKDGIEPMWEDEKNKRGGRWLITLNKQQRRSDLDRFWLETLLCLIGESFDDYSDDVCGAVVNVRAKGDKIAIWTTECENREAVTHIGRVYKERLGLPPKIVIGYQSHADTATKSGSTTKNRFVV

Biological target: His-tagged eIF4E (purified) (human) (UniProt P06730)
Test: pulldown: peptide on TentaGel resin, His-tagged eIF4E, Western blot

binding: binds
Binder: YPYAASPA (synthesized on and bound to TentaGel resin) [peptide-8 (linear)]
